Measurements reported in PubChem BioAssay AID504786 (Drosophila RNAi Screening Center, 2011).
In all, the deposit lists about 21,000 reagents; below is an unselected part of those that have a named target and a result. 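Primary screen; positive scores mean lost reporter signal, so the sign may be inverted from the usual convention.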 Reagents against one gene are numbered here. Names joined by + are all predicted targets of the reagent. Further read-outs or replicates are left out here. Reagent sequences are not shown.

Aim: 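Knock-downs reducing HIF reporter induction by the iron chelator DFO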 (primary screen)
System: Drosophila S2 cells with a stable HIF luciferase reporter
Reagents: long dsRNA against Drosophila genes, about 0.2 µg dsRNA per well of a 384-well plate
Timing: three days of knock-down, then 20 h of DFO before reading
Conditions: desferrioxamine (DFO) at 100 µM, an iron chelator that mimics hypoxia, for 20 h
Read-out: 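HIF reporter luminescence in cells given 100 µM DFO for 20 h, using the mouse ldh-a hypoxia-response element, scored as per-plate z-scores; higher means greater loss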
Scale: z-score: higher = stronger loss of HIF reporter signal

no.	target	dsRNA no.	z-score, replicate 1	z-score, replicate 2	z-score, replicate 3
1	CG7798 (GeneID 36798)	1	-0.3	-0.3	
2	Sap-r (GeneID 43662)	1	-0.3	-0.4	-0.6
3	Cog8 (GeneID 34571)	1	-0.3	-0.1	
4	AOX2 (GeneID 41895)	1	-0.3	-0.1	
5	Amy-d (GeneID 36932)	1	-0.4	-0.9	
6	CenB1A (GeneID 42735)	1	-0.4	-0.8	
7	Bet5 (GeneID 43590)	1	-0.8	-0.1	
8	CG18870 (GeneID 59218)	1	-0.3	-0.3	
9	CG13042 (GeneID 39798)	1	-0.1	-0.2	
10	HemK2 + Snapin	1	-0.5	-0.1	
11	HemK2 + Snapin	2	-0.2	-0.9	
12	CG32436 (GeneID 40362)	1	-0.1	0.2	
13	CG32436 (GeneID 40362)	2	-0.1	-0.1	
14	CG34167 (GeneID 5740831)	1	-0.2	-0.1	
15	CG32100 (GeneID 39400)	1	-0.1	0.1	
16	CG32100 (GeneID 39400)	2	-0.3	-0.4	
17	CG4716 (GeneID 36471)	1	-0.3	-0.3	
18	Gpo2 (GeneID 35689)	1	-0.2	-0.5	
19	Grl65a (GeneID 117342)	1	-0.3	0.1	
20	CG18609 (GeneID 37158)	1	-0.2	-0.3	
21	shu (GeneID 45360)	1	-0.1	-0.4	
22	CG14671 (GeneID 40671)	1	-0.4	-0.2	
23	CG18128 (GeneID 37756)	1	-0.3	0.1	
24	CG11436 (GeneID 31386)	1	-0.1	0.5	
25	APC10 (GeneID 36975)	1	-0.3	-0.4	
26	hpRNA:CR32205 (GeneID 3772102)	1	-0.2	-0.1	
27	CG42288 (GeneID 36559)	1	-0.4	0.1	
28	CG18528 (GeneID 42906)	1	-0.3	-0.6	
29	ash2 (GeneID 42936)	1	-0.3	-0.6	
30	CalpC (GeneID 32597)	1	-0.3	0.6	
31	MTPAP (GeneID 31081)	1	-0.3	0.5	
32	CG1288 (GeneID 40865)	1	-0.1	-0.3	
33	Ccm3 (GeneID 41876)	1	0.4	0.1	
34	CG32262 (GeneID 38445)	1	-0.2	0.1	
35	CG11630 (GeneID 35429)	1	-0.3	-0.3	
36	fand (GeneID 36514)	1	4.1	3.8	
37	CG15376 (retired record) (GeneID 31354)	1	-0.3	-0.1	
38	sob (GeneID 33581)	1	-0.1	-0.6	
39	CG14223 (GeneID 32972)	1	-0.1	-0.5	
40	CG32816 (GeneID 318225)	1	-0.1	-0.5	
41	rdgBbeta (GeneID 37011)	1	-0.3	-0.3	
42	ATP6 (retired record) (GeneID 192467)	1	-0.1	-0.4	
43	Cpr30F (GeneID 318997)	1	-0.2	-0.6	
44	CG34297 (GeneID 5740802)	1	-0.3	0	
45	CG5500 (GeneID 43233)	1	-0.3	0.1	
46	Cad74A (GeneID 39936)	1	-0.1	0.6	
47	GAPcenA (GeneID 38945)	1	-0.4	-0.1	
48	RhoGAP102A (GeneID 43781)	1	-0.5	-0.5	
49	RhoGAP102A (GeneID 43781)	2	-0.3	-0.5	
50	CG12811 (GeneID 41229)	1	-0.3	0.4	
51	RpLP0-like (GeneID 36058)	1	-0.4	-0.2	
52	Flad1 (GeneID 32240)	1	-0.3	-0.3	
53	Zasp67 (GeneID 39148)	1	0	0.1	
54	MED30 (GeneID 38078)	1	-0.1	-0.1	
55	RpL27A (GeneID 33654)	1	6.1	6.5	
56	Ddx1 (GeneID 40457)	1	-0.3	-0.4	
57	CG10943 (GeneID 39462)	1	-0.2	-0.4	
58	fal (GeneID 43927)	1	-0.1	-0.1	
59	CG1542 (GeneID 43691)	1	3.2	4.7	
60	ssp7 (GeneID 318146)	1	-0.3	-0.1	
61	eEF1beta (GeneID 45249)	1	-0.3	-0.4	
62	CG13623 (GeneID 42926)	1	-0.6	-0.3	
63	Dad (GeneID 42059)	1	-0.2	-0.4	
64	gbb (GeneID 37778)	1	-0.4	-0.2	
65	Tmem43 (GeneID 38881)	1	-0.2	0.8	
66	CG4741 (GeneID 37939)	1	-0.1	-0.2	
67	gek (GeneID 37858)	1	-0.2	-0.1	
68	Dek (GeneID 47906)	1	-0.2	0.3	
69	FucT6 (GeneID 32122)	1	-0.4	-0.7	
70	CG40245 (retired record) (GeneID 3354884)	1	0	-0.1	
71	Pgant5 (GeneID 326151)	1	-0.2	-0.1	
72	CG32214 (GeneID 317919)	1	-0.3	-0.5	
73	CG8777 (GeneID 35921)	1	-0.4	0.1	
74	CG13847 (GeneID 42636)	1	1.8	1.8	
75	CG16758 (GeneID 38315)	1	-0.1	0.3	
76	CG16758 (GeneID 38315)	2	-0.3	0.1	
77	CG14329 (GeneID 42116)	1	-0.3	0.2	
78	CG30103 (GeneID 36969)	1	-0.3	0	
79	PolE1 (GeneID 42758)	1	-0.2	0.2	
80	Acbp4 (GeneID 38781)	1	-0.2	-0.6	
81	Ir40a (GeneID 35449)	1	-0.1	-0.2	
82	Ir40a (GeneID 35449)	2	-0.2	0	
83	Hayan (GeneID 32831)	1	-0.2	-0.6	
84	zormin (GeneID 2769001)	1	-0.3	0	
85	zormin (GeneID 2769001)	2	-0.2	-0.4	
86	zormin (GeneID 2769001)	3	-0.5	-0.7	
87	zormin (GeneID 2769001)	4	-0.3	-0.4	
88	zormin (GeneID 2769001)	5	-0.3	-0.7	
89	zormin (GeneID 2769001)	6	-0.3	-0.4	
90	pasha (GeneID 43728)	1	0.1	0.4	
91	CG13293 (GeneID 38695)	1	-0.2	-1	
92	COX7AL2 (GeneID 5740746)	1	0.9	-0.7	
93	Traf6 (GeneID 31746)	1	-0.2	-0.6	
94	Dolk (GeneID 36856)	1	-0.2	-0.3	
95	Ir56b (GeneID 37250)	1	-0.4	-0.7	
96	Or88a (GeneID 41715)	1	-0.3	0	
97	Jon99Fii (GeneID 43621)	1	-0.6	-0.8	
98	CD98hc (GeneID 40941)	1	-0.1	-0.9	
99	Hr3 (GeneID 36073)	1	1.5	1.2	
100	Hr3 (GeneID 36073)	2	-0.4	-0.3	
101	CG9068 (GeneID 36817)	1	-0.2	-0.5	
102	CG4271 (GeneID 33410)	1	-0.2	-0.6	
103	RpL7 (GeneID 34352)	1	8	6.4	
104	Mi-2 (GeneID 40170)	1	-0.5	-1.6	
105	ND2 (retired record) (GeneID 192474)	1	-0.1	-0.4	
106	NAT1 (GeneID 46020)	1	-0.5	-1.2	

9 entries from above, sorted by “z-score, replicate 2”, ascending:
target	dsRNA no.	z-score, replicate 1	z-score, replicate 2	z-score, replicate 3
RhoGAP102A (GeneID 43781)	2	-0.3	-0.5	
Ddx1 (GeneID 40457)	1	-0.3	-0.4	
CG10943 (GeneID 39462)	1	-0.2	-0.4	
Flad1 (GeneID 32240)	1	-0.3	-0.3	
RpLP0-like (GeneID 36058)	1	-0.4	-0.2	
MED30 (GeneID 38078)	1	-0.1	-0.1	
Zasp67 (GeneID 39148)	1	0	0.1	
CG12811 (GeneID 41229)	1	-0.3	0.4	
RpL27A (GeneID 33654)	1	6.1	6.5	
